Data as given in PubChem BioAssay AID1259254 (NCATS, 2017).

Screen: 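Finding genes that stop cells copying their DNA twice in one cycle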 (primary screen)
System: human HCT116 colorectal cancer cells
Reagent: single siRNA against human genes
Timing: 3 days
Detection: 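Imaged Hoechst DNA stain sorts each cell into a cycle phase by DNA amount; per plate, G2 fraction set to 0% for non-targeting and 100% for GMNN siRNA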
Scale: G2 robust z-score and G2 cells, % of GMNN control: higher = more G2 cells, more excess DNA replication
Active means: 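An siRNA counts as active if its G2 robust z-score lies at least 5 MADs above the screen median; here such calls match roughly 38% of GMNN control or more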
This is one part, drawn at random, of about 59,000 reagents tested. Of all reagents, about 1,550 (2.6%) were called active. 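G2 share is only a proxy for re-replication; each gene was hit by three separate siRNAs, and active genes were retested.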 Unmarked entries are inactive. Further read-outs or replicates are left out here. The record does not give: the amount of reagent.

Silencing of CRTAC1 (cartilage acidic protein 1) [SID160742986] came out at: G2 robust z-score -0.475; G2 cells, % of GMNN control -0.374. Knock-down of CRTAC1 (cartilage acidic protein 1) [SID160742987] came out at: G2 robust z-score -1.43; G2 cells, % of GMNN control -7.07. Knock-down of CRTAC1 (cartilage acidic protein 1) [SID160742988] came out at: G2 robust z-score 3.99; G2 cells, % of GMNN control 31. HSDL2 (hydroxysteroid dehydrogenase like 2) [SID160751992] scored G2 robust z-score 0.258; G2 cells, % of GMNN control 4.78. Depletion of HSDL2 (hydroxysteroid dehydrogenase like 2) [SID160751993] resulted in: G2 robust z-score -0.824; G2 cells, % of GMNN control -2.83. HSDL2 (hydroxysteroid dehydrogenase like 2) [SID160751994] gave G2 robust z-score -0.276; G2 cells, % of GMNN control 1.03.

Silencing of C19orf25 (chromosome 19 open reading frame 25) [SID160758664] came out at: G2 robust z-score -0.868; G2 cells, % of GMNN control -3.14. For C19orf25 (chromosome 19 open reading frame 25) [SID160758665] the deposit lists G2 robust z-score 0.816; G2 cells, % of GMNN control 8.71. With knock-down of C19orf25 (chromosome 19 open reading frame 25) [SID160758666], the record shows G2 robust z-score -0.196; G2 cells, % of GMNN control 1.59. Against ALOX15 (arachidonate 15-lipoxygenase) [SID160716748], the entry reads G2 robust z-score -1.08; G2 cells, % of GMNN control -4.62. Against ALOX15 (arachidonate 15-lipoxygenase) [SID160716757], the entry reads G2 robust z-score -0.953; G2 cells, % of GMNN control -3.74. With knock-down of ALOX15 (arachidonate 15-lipoxygenase) [SID160716768], the record shows G2 robust z-score -1.08; G2 cells, % of GMNN control -4.66.

PGAP1 (post-GPI attachment to proteins inositol deacylase 1) [SID160750012] gave G2 robust z-score 5.32 (active); G2 cells, % of GMNN control 40.4. Depletion of PGAP1 (post-GPI attachment to proteins inositol deacylase 1) [SID160750013] resulted in: G2 robust z-score -0.342; G2 cells, % of GMNN control 0.563. With knock-down of PGAP1 (post-GPI attachment to proteins inositol deacylase 1) [SID160750014], the screen gave G2 robust z-score 1.43; G2 cells, % of GMNN control 13. Depletion of BRD8 (bromodomain containing 8) [SID160729470] came out at: G2 robust z-score -0.318; G2 cells, % of GMNN control 0.733. After knock-down of BRD8 (bromodomain containing 8) [SID160729471], the screen gave G2 robust z-score 3.03; G2 cells, % of GMNN control 24.3. Knock-down of BRD8 (bromodomain containing 8) [SID160729472] resulted in: G2 robust z-score -0.959; G2 cells, % of GMNN control -3.78.

Laid out differently: results already given.
CRTAC1 (cartilage acidic protein 1) [SID160742986]
- G2 robust z-score: -0.475
- G2 cells, % of GMNN control: -0.374

CRTAC1 (cartilage acidic protein 1) [SID160742987]
- G2 robust z-score: -1.43
- G2 cells, % of GMNN control: -7.07
